According to article doi:10.1101/2022.12.08.519630:

B1: EGY2 (protein, UniProt Q9FFK3 65-556)
chain: VTETQTEPEGNDDEDNKEGKESSADDPPTKIPTELNSQSTVVNEAPGNEEENKAQFSSQDGDKLEVSSGSPLPGVNVSIIIHVIYKDDSIMFSGCLSFIKSCCEQPLQLDDSMRLPKETIDILRGQVFGFDTFFVTSQEPYEGGVLFKGNLRGKPATSYEKIKTRMENNFGDQYKLFLLTNPEDDKPVAVVVPRRSLEPETTAVPEWFAAGSFGLVALFTLFLRNVPALQSDLLSAFDNLELLKDGLPGALVTALVLGVHELGHILVANSLGIKLGVPFFVPSWQIGSFGAITRIKNIVAKREDLLKVAAAGPLAGFSLGLILFLIGLFVPPSDGIGVVVDASVFHESFLAGGIAKLLLGDALKEGTSISLNPLVIWAWAGLLINGINSIPAGELDGGKIAFSIWGRKTATRLTGASIALLGLSALFSDVAFYWVVLIFFLQRGPIAPLAEEITVPDDKYVSLGILVLFLSLLVCLPYPFAFTGNEAMMIGL
B2: AT2G17695, plastid outer envelope protein (protein, UniProt Q8GXB1 1-205)
chain: MVFLSWGRPSSEQQQQVINKTGTFNYDNKYRGVSSRSIAKLKEDSEIDKDGFLINHARVLVGSGRESYEKGKKALQNWKHFGMDWAFVDPATPVETGKKFCICVKEVLPWVMLPLQVVYVDESRKSRKGPAHFGYGSGTLQGHLLAGEEKFSIELDGNGEVWYEITSFSKPAHFLSFLGYPYVKLRQKHFARHSSEAVLKHVNAS
B3: ACO3 (protein, UniProt Q9SIB9 79-990)
chain: VSPVLDRLQRTFSSMASEHPFKGIFTTLPKPGGGEFGKFYSLPALNDPRVDKLPYSIRILLESAIRNCDNFQVTKEDVEKIIDWEKTSPKQVEIPFKPARVLLQDFTGVPAVVDLACMRDAMNKLGSDSNKINPLVPVDLVIDHSVQVDVARSENAVQANMELEFQRNKERFAFLKWGSTAFQNMLVVPPGSGIVHQVNLEYLGRVVFNTKGLLYPDSVVGTDSHTTMIDGLGVAGWGVGGIEAEATMLGQPMSMVLPGVVGFKLAGKMRNGVTATDLVLTVTQMLRKHGVVGKFVEFYGNGMSGLSLADRATIANMSPEYGATMGFFPVDHVTLQYLKLTGRSDETVAMIEAYLRANNMFVDYNEPQQDRVYSSYLELNLDDVEPCISGPKRPHDRVTLKEMKADWHSCLDSKVGFKGFAIPKEAQEKVVNFSFDGQPAELKHGSVVIAAITSCTNTSNPSVMLGAGLVAKKACDLGLQVKPWIKTSLAPGSGVVTKYLLKSGLQEYLNEQGFNIVGYGCTTCIGNSGEINESVGAAITENDIVAAAVLSGNRNFEGRVHPLTRANYLASPPLVVAYALAGTVNIDFETEPIGKGKNGKDVFLRDIWPTTEEIAEVVQSSVLPDMFRATYESITKGNPMWNKLSVPENTLYSWDPNSTYIHEPPYFKDMTMDPPGPHNVKDAYCLLNFGDSITTDHISPAGNIQKDSPAAKFLMERGVDRKDFNSYGSRRGNDEIMARGTFANIRIVNKLMNGEVGPKTVHIPSGEKLSVFDAAMRYKSSGEDTIILAGAEYGSGSSRDWAAKGPMLQGVKAVIAKSFERIHRSNLVGMGIIPLCFKSGEDADTLGLTGHERYTIHLPTDISEIRPGQDVTVTTDNGKSFTCTVRFDTEVELAYFNHGGILPYVIRNLSKQ
B4: FBA1 (protein, UniProt Q9SJU4 49-399)
chain: ASAYADELVKTAKTIASPGHGIMAMDESNATCGKRLASIGLENTEANRQAYRTLLVSAPGLGQYISGAILFEETLYQSTTDGKKMVDVLVEQNIVPGIKVDKGLVPLVGSYDESWCQGLDGLASRTAAYYQQGARFAKWRTVVSIPNGPSALAVKEAAWGLARYAAISQDSGLVPIVEPEIMLDGEHGIDRTYDVAEKVWAEVFFYLAQNNVMFEGILLKPSMVTPGAEATDRATPEQVASYTLKLLRNRIPPAVPGIMFLSGGQSELEATLNLNAMNQAPNPWHVSFSYARALQNTCLKTWGGKEENVKAAQDILLARAKANSLAQLGKYTGEGESEEAKEGMFVKGYTY
B5: EMB3119 (protein, UniProt Q9S726 40-276)
chain: SVALSQDDLKKLAAEKAVEAIKPGMVLGLGTGSTAAFAVDQIGKLLSSGELYDIVGIPTSKRTEEQARSLGIPLVGLDTHPRIDLAIDGADEVDPNLDLVKGRGGALLREKMVEAVADKFIVVADDTKLVTGLGGSGLAMPVEVVQFCWNFNLIRLQDLFKEFGCESKLRVDGDGKPYVTDNSNYIIDLYFKTPLKDGFAAAKEIGKFQGVVEHGLFLGMATSVIIAGKNGVEVMTK
B6: GUN2 (protein, UniProt O48782 55-282)
chain: AATTAAEKQKKRYPGESKGFVEEMRFVAMRLHTKDQAKEGEKETKSIEERPVAKWEPTVEGYLRFLVDSKLVYDTLELIIQDSNFPTYAEFKNTGLERAEKLSTDLEWFKEQGYEIPEPTAPGKTYSQYLKELAEKDPQAFICHFYNIYFAHSAGGRMIGRKVAERILDNKELEFYKWDGELSQLLQNVREKLNKVAEEWTREEKNHCLEETEKSFKYSGEILRLILS
B7: RUG2 (protein, UniProt Q9ZT96 46-541)
chain: RPGTGIGLTVQCAIANRRFSSRSLDSPRRERSSRSSSSSGRDRDRDKDKGRDSKSLYSRPSLLDMNKEKAANRAKVYEFLRGIGIVPDELDGLELPVTADVMKERVEFLHKLGLTIEDINNYPLVLGCSVKKNMVPVLDYLGKLGVRKSTFTEFLRRYPQVLHSSVVIDLAPVVKYLQGLDIKPSDVPRVLERYPEVLGFKLEGTMSTSVAYLVGIGVARREIGGILTRYPEILGMRVARIIKPLVEYLEVLGIPRLAAARLIEKRPHILGFELDDTVKPNVQILQDFNVRETSLPSIIAQYPEIIGIDLKPKLDTQRKLLCSAIHLNPEDLGSLIERMPQFVSLSESPMLKHIDFLTKCGFSIDQTREMVIGCPQVLALNLGIMKLSFEYFQKEMKRPLQDLVDFPAFFTYGLESTVKPRHKKIIKKGIKCSLAWMLNCSDEKFEQRMSYDTIDIEEVETDPSSFDMNTLMQPEREEESDSEYEEEEDDDDEEFA
B8: HSP90_6 (protein, UniProt F4JFN3 49-799)
chain: SSLTNGQSKNSGSFAQLNMKTNWFMGYRNESSAAASDSSSQAPPPAEKFEYQAEVSRLMDLIVNSLYSNKEVFLRELISNASDALDKLRYLSVTNPELSKDAPDLDIRIYADKENGIITLTDSGIGMTRQELVDCLGTIAQSGTAKFMKALKDSKDAGGDNNLIGQFGVGFYSAFLVADRVIVSTKSPKSDKQYVWEGEANSSSFTIQEDTDPQSLIPRGTRITLHLKQEAKNFADPERIQKLVKNYSQFVSFPIYTWQEKGYTKEVEVEDDPTETKKDDQDDQTEKKKKTKKVVERYWDWELTNETQPIWLRNPKEVTTAEYNEFYRKAFNEYLDPLASSHFTTEGEVEFRSILYVPPVSPSGKDDIVNQKTKNIRLYVKRVFISDDFDGELFPRYLSFVKGVVDSHDLPLNVSREILQESRIVRIMKKRLVRKAFDMILGISLSENREDYEKFWDNFGKHLKLGCIEDRENHKRIAPLLRFFSSQSENDMISLDEYVENMKPEQKAIYFIASDSITSAKNAPFLEKMLEKGLEVLYLVEPIDEVAVQSLKAYKEKDFVDISKEDLDLGDKNEEKEAAVKKEFGQTCDWIKKRLGDKVASVQISNRLSSSPCVLVSGKFGWSANMERLMKAQSTGDTISLDYMKGRRVFEINPDHSIIKNINAAYNSNPNDEDAMRAIDLMYDAALVSSGFTPDNPAELGGKIYEMMDVALSGKWSSPEVQPQQQQMAHSHDAETFEAEVVEPVEVDGKK
B9: BCCP2 (protein, UniProt Q9LLC1 88-255)
chain: EFMAKVSGLLKLVDSKDIVELELKQLDCEIVIRKKEALQQAVPPAPVYHSMPPVMADFSMPPAQPVALPPSPTPTSTPATAKPTSAPSSSHPPLKSPMAGTFYRSPGPGEPPFVKVGDKVQKGQIVCIIEAMKLMNEIEAEKSGTIMELLAEDGKPVSVDTPLFVIAP
B10: CBSX2 (protein, UniProt Q9C5D0 72-238)
chain: AKNGGYTVGDFMTPRQNLHVVKPSTSVDDALELLVEKKVTGLPVIDDNWTLVGVVSDYDLLALDSISGRSQNDTNLFPDVDSTWKTFNELQKLISKTYGKVVGDLMTPSPLVVRDSTNLEDAARLLLETKFRRLPVVDADGKLIGILTRGNVVRAALQIKRETENST
B11: AT2G19940, predicted N-acetyl-gamma-glutamyl-phosphate reductase (protein, UniProt Q93Z70 49-401)
chain: ASSSVKPEKDIRIGLLGASGYTGAEIVRLLANHPHFQVTLMTADRKAGQSMESVFPHLRAQKLPTLVSVKDADFSTVDAVFCCLPHGTTQEIIKELPTALKIVDLSADFRLRNIAEYEEWYGQPHKAVELQKEVVYGLTEILREDIKKARLVANPGCYPTTIQLPLVPLLKANLIKHENIIIDAKSGVSGAGRGAKEANLYSEIAEGISSYGVTRHRHVPEIEQGLSDVAQSKVTVSFTPHLMPMIRGMQSTIYVEMAPGVRTEDLHQQLKTSYEDEEFVKVLDEGVVPRTHNVRGSNYCHMSVFPDRIPGRAIIISVIDNLVKGASGQALQNLNIMLGYPETTGLLHQPLFP

Target: CGL20a-TID-YFP fusion protein (Arabidopsis thaliana)
Assay: proximity labelling

| Binder | binding |
| --- | --- |
| B1 | binds |
| B2 | binds |
| B3 | binds |
| B4 | binds |
| B5 | binds |
| B6 | binds |
| B7 | binds |
| B8 | binds |
| B9 | binds |
| B10 | binds |
| B11 | binds |

Results are given in words; binding and its absence hold for the method and conditions named. In cells and extracts the contact can be indirect. Here binding means that the protein was enriched with, or labelled near, the bait; the list need not be complete.
